Laboratory results as given in the supplement of paper PMC10849652.
This is one part of the list.

Protein sequences, listed by entry. Tags and fused reporters are not part of them. Lines headed by an entry give the natural chain unless they say otherwise; changes in a name come on top.
UniProt Q9UI10, whole entry, looked up: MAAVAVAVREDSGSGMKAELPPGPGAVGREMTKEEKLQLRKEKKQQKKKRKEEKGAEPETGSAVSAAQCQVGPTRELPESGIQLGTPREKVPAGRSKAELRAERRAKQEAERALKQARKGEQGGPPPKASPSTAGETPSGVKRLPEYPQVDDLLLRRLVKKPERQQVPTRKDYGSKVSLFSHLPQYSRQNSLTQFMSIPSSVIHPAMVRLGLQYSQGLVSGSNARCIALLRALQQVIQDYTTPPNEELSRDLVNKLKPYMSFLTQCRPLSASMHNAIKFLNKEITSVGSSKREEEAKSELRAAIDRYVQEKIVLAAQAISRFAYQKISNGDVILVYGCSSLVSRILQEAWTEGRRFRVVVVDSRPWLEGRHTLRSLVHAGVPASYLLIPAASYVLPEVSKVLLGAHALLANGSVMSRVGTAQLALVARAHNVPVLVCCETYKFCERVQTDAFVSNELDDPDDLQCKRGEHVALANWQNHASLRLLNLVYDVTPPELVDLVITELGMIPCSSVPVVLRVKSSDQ
UniProt O95163: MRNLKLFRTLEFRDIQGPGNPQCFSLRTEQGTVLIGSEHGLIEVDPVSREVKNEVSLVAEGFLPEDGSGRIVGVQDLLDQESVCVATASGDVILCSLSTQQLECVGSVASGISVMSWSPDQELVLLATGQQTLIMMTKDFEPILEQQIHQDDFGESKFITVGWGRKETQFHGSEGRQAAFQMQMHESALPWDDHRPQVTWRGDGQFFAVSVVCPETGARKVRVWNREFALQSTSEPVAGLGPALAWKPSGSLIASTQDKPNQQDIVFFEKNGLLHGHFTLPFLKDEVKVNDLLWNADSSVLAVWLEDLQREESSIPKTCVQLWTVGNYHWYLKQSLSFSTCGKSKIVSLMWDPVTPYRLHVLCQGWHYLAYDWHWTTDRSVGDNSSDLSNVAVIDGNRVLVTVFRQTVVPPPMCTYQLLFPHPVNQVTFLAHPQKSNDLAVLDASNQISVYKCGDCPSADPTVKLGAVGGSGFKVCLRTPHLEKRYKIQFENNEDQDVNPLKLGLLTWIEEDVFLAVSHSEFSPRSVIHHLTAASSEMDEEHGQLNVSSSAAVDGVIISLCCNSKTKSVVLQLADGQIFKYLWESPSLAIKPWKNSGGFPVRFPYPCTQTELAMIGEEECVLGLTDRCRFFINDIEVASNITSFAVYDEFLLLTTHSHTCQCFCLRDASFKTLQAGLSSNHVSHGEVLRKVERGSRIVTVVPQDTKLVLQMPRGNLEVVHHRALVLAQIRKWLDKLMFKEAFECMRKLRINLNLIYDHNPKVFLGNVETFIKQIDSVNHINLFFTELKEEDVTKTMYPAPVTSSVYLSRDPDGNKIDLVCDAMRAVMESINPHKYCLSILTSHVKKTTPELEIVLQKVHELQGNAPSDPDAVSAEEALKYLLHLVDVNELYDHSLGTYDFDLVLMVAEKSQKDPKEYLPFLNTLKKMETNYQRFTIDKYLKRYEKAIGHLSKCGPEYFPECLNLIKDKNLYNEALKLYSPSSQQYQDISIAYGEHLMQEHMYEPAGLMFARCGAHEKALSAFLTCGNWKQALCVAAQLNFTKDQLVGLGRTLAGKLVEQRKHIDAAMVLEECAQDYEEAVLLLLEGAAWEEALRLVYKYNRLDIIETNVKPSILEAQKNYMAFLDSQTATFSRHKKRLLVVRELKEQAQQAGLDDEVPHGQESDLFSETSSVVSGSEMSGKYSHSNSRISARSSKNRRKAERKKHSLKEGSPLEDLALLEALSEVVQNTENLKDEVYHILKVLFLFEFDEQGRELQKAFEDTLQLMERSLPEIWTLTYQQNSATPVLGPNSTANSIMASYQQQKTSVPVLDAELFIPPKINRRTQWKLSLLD
UniProt Q9BQ52: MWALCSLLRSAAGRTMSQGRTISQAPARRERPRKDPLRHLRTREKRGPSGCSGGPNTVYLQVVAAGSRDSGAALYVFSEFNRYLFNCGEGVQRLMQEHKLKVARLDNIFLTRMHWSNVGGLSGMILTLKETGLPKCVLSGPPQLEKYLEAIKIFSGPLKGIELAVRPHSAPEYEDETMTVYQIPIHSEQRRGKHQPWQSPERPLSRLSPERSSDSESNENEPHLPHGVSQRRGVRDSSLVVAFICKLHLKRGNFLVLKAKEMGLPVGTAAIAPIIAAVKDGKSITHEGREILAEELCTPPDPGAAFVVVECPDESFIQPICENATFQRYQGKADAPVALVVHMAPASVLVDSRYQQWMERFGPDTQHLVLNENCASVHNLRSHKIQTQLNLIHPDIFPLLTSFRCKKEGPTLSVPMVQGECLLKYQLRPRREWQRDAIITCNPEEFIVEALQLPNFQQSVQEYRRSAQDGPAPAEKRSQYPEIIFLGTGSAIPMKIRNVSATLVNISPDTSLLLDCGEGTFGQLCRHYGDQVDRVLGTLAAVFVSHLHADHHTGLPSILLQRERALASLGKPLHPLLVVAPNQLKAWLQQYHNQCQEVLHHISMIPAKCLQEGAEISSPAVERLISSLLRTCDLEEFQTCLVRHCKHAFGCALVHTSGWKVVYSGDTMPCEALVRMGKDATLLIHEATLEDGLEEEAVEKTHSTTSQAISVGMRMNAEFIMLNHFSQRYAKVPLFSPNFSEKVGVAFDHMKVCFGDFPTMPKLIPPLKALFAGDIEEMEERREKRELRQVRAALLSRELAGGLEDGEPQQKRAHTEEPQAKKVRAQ
UniProt Q5J8M3, whole entry, looked up: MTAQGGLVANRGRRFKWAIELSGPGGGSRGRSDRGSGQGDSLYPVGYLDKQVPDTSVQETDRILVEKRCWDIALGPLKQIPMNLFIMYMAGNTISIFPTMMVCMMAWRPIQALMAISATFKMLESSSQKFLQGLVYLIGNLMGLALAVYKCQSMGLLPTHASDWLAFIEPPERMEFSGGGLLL
UniProt P55199: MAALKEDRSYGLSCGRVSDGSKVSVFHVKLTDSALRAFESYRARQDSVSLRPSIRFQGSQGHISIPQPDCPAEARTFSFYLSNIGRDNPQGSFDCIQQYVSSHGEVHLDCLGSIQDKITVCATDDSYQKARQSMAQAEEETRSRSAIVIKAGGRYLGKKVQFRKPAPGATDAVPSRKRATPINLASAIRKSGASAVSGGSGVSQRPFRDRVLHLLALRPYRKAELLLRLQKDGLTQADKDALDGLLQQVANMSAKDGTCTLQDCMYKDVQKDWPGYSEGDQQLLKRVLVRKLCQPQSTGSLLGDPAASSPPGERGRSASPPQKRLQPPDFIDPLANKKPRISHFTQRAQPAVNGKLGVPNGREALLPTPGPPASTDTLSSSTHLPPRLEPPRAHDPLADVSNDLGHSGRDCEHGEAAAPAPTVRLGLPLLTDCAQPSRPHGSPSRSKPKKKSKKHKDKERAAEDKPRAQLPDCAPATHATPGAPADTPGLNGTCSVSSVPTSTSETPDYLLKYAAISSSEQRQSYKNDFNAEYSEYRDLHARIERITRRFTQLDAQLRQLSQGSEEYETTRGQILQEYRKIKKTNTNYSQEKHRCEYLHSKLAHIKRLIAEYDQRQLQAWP
UniProt O43768: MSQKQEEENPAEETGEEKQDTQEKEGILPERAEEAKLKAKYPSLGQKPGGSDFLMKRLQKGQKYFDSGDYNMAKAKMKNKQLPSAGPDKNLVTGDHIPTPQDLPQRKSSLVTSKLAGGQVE
UniProt Q04637, whole entry, looked up: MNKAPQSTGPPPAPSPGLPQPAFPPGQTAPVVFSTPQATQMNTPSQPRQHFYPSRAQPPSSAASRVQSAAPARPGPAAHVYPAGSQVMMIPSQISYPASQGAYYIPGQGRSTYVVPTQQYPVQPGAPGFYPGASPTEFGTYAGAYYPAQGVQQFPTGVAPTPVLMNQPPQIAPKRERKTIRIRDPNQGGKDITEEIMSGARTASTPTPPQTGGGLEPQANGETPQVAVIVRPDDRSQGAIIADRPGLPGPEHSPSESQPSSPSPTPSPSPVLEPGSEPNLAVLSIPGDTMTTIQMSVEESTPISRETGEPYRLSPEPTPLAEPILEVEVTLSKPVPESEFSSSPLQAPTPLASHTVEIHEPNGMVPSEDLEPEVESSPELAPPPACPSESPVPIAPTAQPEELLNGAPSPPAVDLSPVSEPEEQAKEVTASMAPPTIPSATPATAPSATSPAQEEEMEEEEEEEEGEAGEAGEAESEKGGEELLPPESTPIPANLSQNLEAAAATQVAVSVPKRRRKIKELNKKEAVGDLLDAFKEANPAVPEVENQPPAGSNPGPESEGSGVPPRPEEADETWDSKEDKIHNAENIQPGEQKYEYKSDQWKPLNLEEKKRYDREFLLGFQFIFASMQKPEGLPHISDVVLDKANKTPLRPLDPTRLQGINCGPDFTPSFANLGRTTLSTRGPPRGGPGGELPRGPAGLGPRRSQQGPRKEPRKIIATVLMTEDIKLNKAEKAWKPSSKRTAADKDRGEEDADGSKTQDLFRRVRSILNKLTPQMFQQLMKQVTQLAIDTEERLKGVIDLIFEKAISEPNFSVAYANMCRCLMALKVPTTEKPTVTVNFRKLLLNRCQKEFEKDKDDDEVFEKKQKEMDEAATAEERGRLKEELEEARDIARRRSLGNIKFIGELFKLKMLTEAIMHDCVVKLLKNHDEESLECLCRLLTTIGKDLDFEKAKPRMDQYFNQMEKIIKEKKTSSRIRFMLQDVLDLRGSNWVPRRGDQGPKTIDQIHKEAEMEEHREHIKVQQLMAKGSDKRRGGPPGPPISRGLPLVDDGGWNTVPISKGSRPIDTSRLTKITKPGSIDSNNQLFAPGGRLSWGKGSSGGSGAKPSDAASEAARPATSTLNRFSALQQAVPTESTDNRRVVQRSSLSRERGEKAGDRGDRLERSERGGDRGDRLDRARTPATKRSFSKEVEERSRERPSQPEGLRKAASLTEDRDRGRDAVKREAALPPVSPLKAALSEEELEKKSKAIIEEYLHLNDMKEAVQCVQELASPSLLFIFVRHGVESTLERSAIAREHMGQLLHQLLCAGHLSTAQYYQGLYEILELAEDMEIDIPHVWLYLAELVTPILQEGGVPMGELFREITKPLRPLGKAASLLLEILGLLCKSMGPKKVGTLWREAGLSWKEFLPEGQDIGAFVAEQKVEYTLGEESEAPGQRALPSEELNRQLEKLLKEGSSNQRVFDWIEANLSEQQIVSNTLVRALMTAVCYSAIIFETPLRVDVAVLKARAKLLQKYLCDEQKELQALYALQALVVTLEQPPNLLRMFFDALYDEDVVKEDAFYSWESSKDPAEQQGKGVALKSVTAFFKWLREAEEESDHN
UniProt Q7L2H7, whole entry, looked up: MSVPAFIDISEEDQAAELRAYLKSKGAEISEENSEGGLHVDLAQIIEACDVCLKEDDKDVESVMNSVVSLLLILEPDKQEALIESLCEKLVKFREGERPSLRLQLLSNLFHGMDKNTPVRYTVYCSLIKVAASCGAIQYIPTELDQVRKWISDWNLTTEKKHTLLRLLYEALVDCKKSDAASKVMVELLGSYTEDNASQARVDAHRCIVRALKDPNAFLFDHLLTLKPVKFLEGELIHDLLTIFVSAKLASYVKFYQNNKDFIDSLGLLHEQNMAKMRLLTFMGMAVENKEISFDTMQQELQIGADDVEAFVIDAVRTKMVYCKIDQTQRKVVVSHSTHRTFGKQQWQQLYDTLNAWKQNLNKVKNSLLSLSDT
UniProt Q9H4G0, whole entry, looked up: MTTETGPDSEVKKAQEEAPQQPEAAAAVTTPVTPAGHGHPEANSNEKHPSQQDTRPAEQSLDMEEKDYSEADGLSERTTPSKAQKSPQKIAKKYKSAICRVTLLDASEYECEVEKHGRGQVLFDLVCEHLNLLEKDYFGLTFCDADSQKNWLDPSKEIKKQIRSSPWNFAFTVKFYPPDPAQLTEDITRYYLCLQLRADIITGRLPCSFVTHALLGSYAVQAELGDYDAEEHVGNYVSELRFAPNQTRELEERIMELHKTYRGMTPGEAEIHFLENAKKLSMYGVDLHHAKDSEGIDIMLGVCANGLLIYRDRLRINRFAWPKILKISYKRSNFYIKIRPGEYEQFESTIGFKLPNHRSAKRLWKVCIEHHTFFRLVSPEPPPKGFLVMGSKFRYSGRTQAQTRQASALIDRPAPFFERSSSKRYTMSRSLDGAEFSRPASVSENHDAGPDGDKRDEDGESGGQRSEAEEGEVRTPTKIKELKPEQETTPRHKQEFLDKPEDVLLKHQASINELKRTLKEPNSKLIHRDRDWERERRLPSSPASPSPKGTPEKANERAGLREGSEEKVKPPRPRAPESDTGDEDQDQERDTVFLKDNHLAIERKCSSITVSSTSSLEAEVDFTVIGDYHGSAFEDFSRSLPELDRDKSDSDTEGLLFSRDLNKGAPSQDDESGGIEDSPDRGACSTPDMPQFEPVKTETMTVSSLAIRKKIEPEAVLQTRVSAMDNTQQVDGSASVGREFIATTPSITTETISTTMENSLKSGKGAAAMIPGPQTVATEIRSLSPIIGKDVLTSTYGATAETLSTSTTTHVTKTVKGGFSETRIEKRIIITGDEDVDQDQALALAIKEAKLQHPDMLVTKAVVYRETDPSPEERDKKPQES
UniProt Q9NPA8: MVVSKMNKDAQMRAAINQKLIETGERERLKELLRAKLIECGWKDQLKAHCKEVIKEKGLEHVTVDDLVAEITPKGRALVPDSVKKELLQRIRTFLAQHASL

These targets were tested with O=C(O)c1ccc2c(c1)nc(Nc1cccc(Cl)c1)c1ccncc12 [silmitasertib] (assay: log2 fold change, soluble protein after heating vs DMSO (PISA); higher = thermal stabilisation; K562 lysate, 10 uM; active = over 0.2 and 3.5 SD of the protein, either way, in both replicates (recomputed)).
In short: (§1)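 Quantification was by TMTpro 16plex LC-MS/MS with equalised channel sums, applied to the supernatant after 21,000xg for 90 min. Samples were crude K562 extract at 1 mg/mL protein in PBS pH 7.4 with 1 mM MgCl2, treated with 10 μM compound for 30 min, heated for 3 min across 48°C-58°C, pooled and brought to 0.5% NP-40 at 4°C. Values are log-two fold changes in thermal stability relative to solvent controls, from duplicates.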

log2 fold change, inactive:
EPN1 (UniProt Q9Y6I3) -0.035, EMC3 (UniProt Q9P0I2) 0.008, EIF3K (UniProt Q9UBQ5) 0.083, EMC1 (UniProt Q8N766) 0.008, EMC10 (UniProt Q5UCC4) -0.005, ELP4 (UniProt Q96EB1) 0.014, EPB41L2 (UniProt O43491) -0.009, EIF2B4 (UniProt Q9UI10) 0.013, EPHX1 (UniProt P07099) -0.01, ERGIC2 (UniProt Q96RQ1) 0.028, ERBIN isoform 8 (UniProt Q96RT1) -0.001, EIF3A (UniProt Q14152) 0.033, ELP1 (UniProt O95163) 0.022, ELP5 isoform 4 (UniProt Q8TE02) -0.014, EMP3 (UniProt P54852) -0.05, ELOB (UniProt Q15370) -0.048, EIF2B5 (UniProt Q13144) -0.009, ELAC2 (UniProt Q9BQ52) 0.005, ERCC6L (UniProt Q2NKX8) 0.014, EPS15L1 isoform 2 (UniProt Q9UBC2) -0.007, EMC4 (UniProt Q5J8M3) 0.09, EIF3I (UniProt Q13347) 0.061, EIF3C (UniProt Q99613) 0.019, ELL (UniProt P55199) -0.038, EPHX2 (UniProt P34913) 0.002, ENTPD5 (UniProt O75356) 0.011, EIF2S2 (UniProt P20042) -0.005, EIF3J (UniProt O75822) -0.032, ENSA isoform 3 (UniProt O43768) -0.019, EIF3G (UniProt O75821) -0.021, ERCC2 (UniProt P18074) -0.027, EIF4G1 (UniProt Q04637) -0.006, EIF3M (UniProt Q7L2H7) 0.014, EPB41L1 (UniProt Q9H4G0) 0.011, ENY2 (UniProt Q9NPA8) -0.032

Each target was assayed with O=C1NC(=O)C(c2cnc3ccccn23)=C1c1cn2c3c(cc(F)cc13)CN(C(=O)N1CCCCC1)CC2 in the same assay as above.
In short: as §1

log2 fold change, inactive:
EPN1 (UniProt Q9Y6I3) 0.007, EMC3 (UniProt Q9P0I2) -0.003, EIF3K (UniProt Q9UBQ5) 0.045, EMC1 (UniProt Q8N766) -0.013, EMC10 (UniProt Q5UCC4) 0, ELP4 (UniProt Q96EB1) 0.016, EPB41L2 (UniProt O43491) -0.007, EIF2B4 (UniProt Q9UI10) -0.006, EPHX1 (UniProt P07099) 0.033, ERGIC2 (UniProt Q96RQ1) -0.019, ERBIN isoform 8 (UniProt Q96RT1) -0.017, EIF3A (UniProt Q14152) 0.011, ELP1 (UniProt O95163) 0.013, ELP5 isoform 4 (UniProt Q8TE02) -0.002, EMP3 (UniProt P54852) -0.014, ELOB (UniProt Q15370) 0.041, EIF2B5 (UniProt Q13144) -0.029, ELAC2 (UniProt Q9BQ52) 0.02, ERCC6L (UniProt Q2NKX8) -0.028, EPS15L1 isoform 2 (UniProt Q9UBC2) -0.007, EMC4 (UniProt Q5J8M3) -0.02, EIF3I (UniProt Q13347) -0.005, EIF3C (UniProt Q99613) 0.016, ELL (UniProt P55199) -0.033, EPHX2 (UniProt P34913) -0.021, ENTPD5 (UniProt O75356) -0.027, EIF2S2 (UniProt P20042) 0.011, EIF3J (UniProt O75822) -0.013, ENSA isoform 3 (UniProt O43768) 0.003, EIF3G (UniProt O75821) -0.016, ERCC2 (UniProt P18074) -0.058, EIF4G1 (UniProt Q04637) -0.016, EIF3M (UniProt Q7L2H7) 0.027, EPB41L1 (UniProt Q9H4G0) 0.024, ENY2 (UniProt Q9NPA8) 0.016
